# Assay results taken from PubChem BioAssay AID1487 (National Center for Advancing Translational Sciences (NCATS), 2009).
# The list shows a part of the results. Further columns of the screen follow, without active or inactive calls. The list favours compounds with an active or inconclusive main result. The note in brackets gives the kind of curve behind each potency; many fits are weak.
# Assay: qHTS Assay for Modulators of Lamin A Splicing
# Settings: HeLa LMNA splicing GFP/RFP minigene ratio, 48 h
# In short: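 S3 HeLa cells stably expressing lamin A-EGFP splicing minigene plus DsRed2, 600 cells/well, 48 h compound exposure at 37C. Laser-scanning cytometry; analysed as GFP (500-530 nm)/RFP (575-640 nm) total intensity ratio; 0.5% DMSO vehicle.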
# [1] = measured here: RFP viability control channel
# [2] = measured here: GFP splicing reporter channel
SMILES,AC50 [1],AC50 [2]
Cc1cc(Oc2ccccc2)nc(SCC(=O)Nc2ccccc2)n1,"10 µM [rising, partial curve]",–
O=C(CCc1ccccc1)Nc1ccncc1,"11.2 µM [rising, single point]",–
CC(/C=N/NC(=O)NC1CCCCC1)=C\c1ccccc1,"22.4 µM [falling, single point]","12.6 µM [falling, single point]"
CC(C)CC(=O)NCC(c1ccc2c(c1)OCO2)N1CCN(c2ccc(F)cc2)CC1 (stereo unspecified),"0.0447 µM [falling, full curve, poor fit]",–
CCOC(=O)c1cc(-c2ccc(N3CCOCC3)cc2)nn1-c1ccc(F)cc1F,"22.4 µM [rising, single point]","8.91 µM [rising, partial curve, poor fit]"
CCOC(=O)C1CCN(C(=O)c2cc3cc(Br)ccc3oc2=O)CC1,–,"7.08 µM [falling, partial curve, poor fit]"
O=C(c1cccs1)c1cn(CC(=O)N2CCc3ccccc3C2)c2ccccc12,"11.2 µM [rising, single point]",–
CCOc1ccc(S(=O)(=O)NCc2ccc3c(c2)CCN3C(=O)c2ccc(C)cc2)cc1,"12.6 µM [falling, partial curve]","11.2 µM [falling, partial curve]"
CCn1ccc2cc(S(=O)(=O)N3CCC(C(=O)NCC(C)c4ccccc4)CC3)ccc21 (stereo unspecified),"3.16 µM [falling, partial curve, poor fit]","35.5 µM [falling, single point]"
Cc1ccc(-n2ncc(C(=O)NCc3ccccn3)c2C2CCN(C(=O)OC(C)(C)C)CC2)cc1C,–,"0.00316 µM [falling, full curve, poor fit]"
CC(=O)Nc1ccc(SCC(=O)Nc2ccccc2Oc2ccccc2)cc1,"31.6 µM [rising, single point]",–
O=C(Nc1ccncc1)C1CCCN(S(=O)(=O)c2cccc3cccnc23)C1 (stereo unspecified),"2.51 µM [rising, full curve]",–
CN(C(=O)/C=C/c1ccc([N+](=O)[O-])s1)c1ccccc1,"35.5 µM [falling, single point]",–
COc1ccccc1C1C(C(C)=O)=C(O)C(=O)N1CCc1ccccc1 (stereo unspecified),"35.5 µM [rising, single point]",–
CC(C)CC(=O)Nc1ccc2c(c1)OCO2,"1.78 µM [falling, full curve, poor fit]",–
O=C(Nc1ccc(C(F)(F)F)cc1)c1cc(S(=O)(=O)N2CCCc3ccccc32)ccc1F,–,"0.0178 µM [falling, full curve, poor fit]"
O=C(CN1CCC(n2nnc3cc(F)ccc32)CC1)NC1CCCCC1,–,"14.1 µM [rising, partial curve, poor fit]"
COc1ccc(Br)cc1/C=C/C(=O)Nc1ccc2ccccc2c1,"10 µM [rising, partial curve, poor fit]",–
COc1ccc(Nc2ncc3c(n2)CCN(Cc2cccc(F)c2F)C3)c(OC)c1,–,"0.0794 µM [falling, full curve, poor fit]"

# Some of the entries so far, with bars between the fields.
SMILES | AC50 [1] | AC50 [2]
CCOc1ccc(S(=O)(=O)NCc2ccc3c(c2)CCN3C(=O)c2ccc(C)cc2)cc1 | 12.6 µM [falling, partial curve] | 11.2 µM [falling, partial curve]
COc1ccccc1C1C(C(C)=O)=C(O)C(=O)N1CCc1ccccc1 (stereo unspecified) | 35.5 µM [rising, single point] | –

# (next part)

SMILES,AC50 [1],AC50 [2]
CCNc1ncc2nc(C)c(=O)n(CCc3ccccc3)c2n1,–,"17.8 µM [falling, single point]"
NC(=O)NC(CC(=O)NCCCc1ccccc1)c1ccccc1Cl (stereo unspecified),"0.0794 µM [rising, full curve, poor fit]",–
CCN1CCC(N(Cc2ccc3c(c2)OCO3)C(=O)Nc2cccc(C)c2C)CC1,"0.1 µM [rising, partial curve]",–
CC(=O)N(c1ccc(Cl)cc1)c1c[nH]c2ccccc12,"8.91 µM [rising, partial curve]",–
O=[N+]([O-])c1cc(S(=O)(=O)Nc2ccccc2)ccc1NCc1ccccc1,"17.8 µM [rising, partial curve]","12.6 µM [rising, single point]"
CCN(CC)S(=O)(=O)c1ccc(Cl)c(C(=O)NCc2ccccc2Cl)c1,"25.1 µM [rising, single point]",–
CCOC(=O)c1c(-c2ccc(C)o2)csc1NC(=O)CSc1nnnn1-c1ccccc1,"12.6 µM [rising, partial curve]","11.2 µM [rising, partial curve]"
c1ccc2c(SCc3cn4cccnc4n3)ncnc2c1,"15.8 µM [rising, single point]",–
CC12CC(c3ccccc3O1)C(/C(N)=N/NC(=O)c1ccc(F)cc1)C(=O)N2 (stereo unspecified),"22.4 µM [rising, partial curve, poor fit]",–
COC(=O)c1ccc(Sc2ccc(C)cc2)c(N)c1,"17.8 µM [rising, single point]",–
COc1cccc(C(=O)C2CCCN(C(=O)c3cccc(C#CC(C)(C)O)c3)C2)c1 (stereo unspecified),"0.447 µM [falling, full curve, poor fit]","0.794 µM [falling, full curve, poor fit]"
CNC(=O)[C@H]1O[C@@H](n2cnc3c(NCc4ccc(I)cc4)nc(Cl)nc32)[C@H](O)[C@@H]1O,"35.5 µM [falling, partial curve]","20 µM [falling, partial curve]"
Oc1c(C(c2ccccc2Cl)N2CCC(O)CC2)sc2nc(-c3ccco3)nn12 (stereo unspecified),"5.01 µM [falling, partial curve, poor fit]",–
Cc1c(C(=O)N2CCc3ccccc3C2)sc2nc(-c3ccccc3)cn12,"25.1 µM [rising, single point]","11.2 µM [rising, partial curve]"
O=C(OCCN1C(=O)c2cccc3c(N4CCOCC4)ccc(c23)C1=O)c1ccccc1Cl,"6.31 µM [rising, partial curve]",–
CCOc1ncccc1C(=O)Nc1ccc(S(=O)(=O)NC2=NCCCCC2)cc1,–,"6.31 µM [falling, partial curve, poor fit]"
COc1ccc(OC)c(C(=O)c2coc3ccc(OC)cc23)c1,"35.5 µM [rising, single point]",–
CC(C)CNC(C(=O)Nc1ccc([N+](=O)[O-])cc1Br)c1ccccc1 (stereo unspecified),"35.5 µM [rising, single point]",–
CC1CCN(C(=O)c2ccc(CSc3ccc(Cl)cc3)cc2)CC1,"15.8 µM [rising, single point]",–

SMILES,AC50 [1],AC50 [2]
Cc1ccc2c(c1)nnn2C1CCN(S(=O)(=O)c2ccc3ccccc3c2)CC1,"20 µM [rising, partial curve]","35.5 µM [rising, single point]"
C/C(CC1CC(C)(C)OC1=O)=N/Nc1nc(-c2ccccc2)cs1 (stereo unspecified),"1.41 µM [rising, partial curve]",–
CC(C)Cn1cnc2c(N)nc3ccccc3c21,"12.6 µM [rising, single point]",–
COc1ccc2oc(=O)c(C(=O)OCC(=O)c3ccc([N+](=O)[O-])cc3)cc2c1,"4.47 µM [rising, partial curve]",–
COc1ccc(C)cc1NC(=O)c1sc2nc(-c3ccc(F)cc3)cn2c1C,"35.5 µM [rising, single point]",–
CCN(CC)C(=O)c1sc2c(c1C)c(=O)n(Cc1ccccc1)c(=O)n2Cc1cc(C)ccc1C,–,"0.158 µM [rising, full curve, poor fit]"
CCOc1cc(S(=O)(=O)NCCc2c(C)[nH]c3ccc(C)cc23)ccc1F,"35.5 µM [falling, partial curve]",–
O=Nc1onc(-c2ccc([N+](=O)[O-])cc2)c1NO,"35.5 µM [falling, partial curve, poor fit]",–
C/C(=N\Nc1nc(C)c(C)s1)c1ccc([N+](=O)[O-])cc1,"15.8 µM [rising, single point]",–
Cc1ccc(C(=O)COC(=O)CCC(=O)NC2CCCCC2)cc1[N+](=O)[O-],"10 µM [rising, partial curve, poor fit]","0.708 µM [rising, full curve, poor fit]"
COc1ccc(CNC(=O)c2sc3nc4c(c(C(F)(F)F)c3c2N)CCC4)cc1,"12.6 µM [rising, partial curve]","10 µM [rising, partial curve, poor fit]"
N#CC1=C(N)C(C#N)(C#N)[C@H](c2c(F)cccc2F)[C@H]2CC3(CC=C12)OCCO3,"31.6 µM [rising, single point]",–
Cc1cccc(N2C(=O)C(O)=C(C(=O)c3cccs3)C2c2ccc(F)cc2)n1 (stereo unspecified),"0.00501 µM [falling, full curve, poor fit]","0.01 µM [falling, partial curve, poor fit]"
O=C(NCCN1C(=O)S/C(=C\c2cccnc2)C1=O)C1CC(=O)N(Cc2ccco2)C1 (stereo unspecified),"8.91 µM [rising, partial curve]",–
COC(=O)c1ccc(NC(=S)NCCc2ccccc2)cc1,"2.82 µM [falling, partial curve]",–
Cc1c(C(Nc2ccccn2)c2ccc(Cl)cc2)c(=O)n(-c2ccccc2)n1C (stereo unspecified),–,"8.91 µM [rising, partial curve]"
COc1ccc2c(c1OC)C(=O)N1c3ccccc3C(=O)N(c3ccc(F)cc3)C21 (stereo unspecified),"5.62 µM [rising, partial curve, poor fit]",–
OCCC1CN(Cc2ccc(C(F)(F)F)cc2)CCN1Cc1ccccc1 (stereo unspecified),"35.5 µM [falling, single point]",–
CC(C)C(NC(=O)CSCc1ccc([N+](=O)[O-])cc1)C(C)C,"15.8 µM [rising, partial curve]","11.2 µM [rising, partial curve]"
